Measurements published in article PMC6214143, “Oncotoxic Properties of Serotonin Transporter Inhibitors and 5-HT1A Receptor Ligands” (International Journal of Molecular Sciences, 2018).

How the values were obtained:
SH-SY5Y cells = test: MTT cell survival assay, SH-SY5Y cells; type: cell-based, human
Method: (§1) The effects of the test compounds on the survival of PC-3, SH-SY5Y, Balb/c 3T3 and HEK293 cells was measured with the aid of the 3-(4,5-dimethylthiazol-2-yl)-2,5-diphenyltetrazolium bromide (MTT) assay. The cells were cultured in 96-well plates (100 μL/well) for 72 h. The optimized initial densities were the following: for PC-3—60,000 cells/mL, SH-SY5Y and Balb/c 3T3—50,000 cells/mL.
(§2) After 20 h preincubation and evaluation of the uniformity of cell growth, the medium was aspirated, and the respective solutions of the substances were added to the culture medium. Control cells were only treated the solvent used for the compounds and medium alone.
(§3) MTT (3-(4,5-dimethylthiazol-2-yl)-2,5-diphenyltetrazolium bromide) is reduced by intracellular dehydrogenase, which is present only in live cells (mitochondria), to purple, water-insoluble formazan. After it is dissolved, formazan absorbance of the resulting solution is directly proportional to the number of living cells in culture.
(§4) After appropriate incubation, the culture medium was removed. Next, 50 μL of MTT solution (0.5 mg/mL) diluted in PBS to 0.5 mg/mL was added to each well. […] The test was performed in three to five independent experiments with four times the measured concentration tested. The cell survival percentage was determined as % of controls, which were cells treated with the test compound solvent at the highest concentration.

PC-3 cells = test: MTT cell survival assay, PC-3 cells; type: cell-based, human
Method: as §1, §2, §3, §4

Row | Structure (SMILES) | IC50 ratio parent/acetylated derivative (SH-SY5Y cells) | IC50 ratio parent/acetylated derivative (PC-3 cells)
1 | COCCCC/C(=N\OCCNC(C)=O)c1ccc(C(F)(F)F)cc1 [N-Ac-Fluvoxamine, reference compound] | 0.80 | 0.52
2 | CC(=O)N1CCC(c2ccc(F)cc2)C(COc2ccc3c(c2)OCO3)C1 (stereo not shown) [N-Ac-Paroxetine, reference compound] | 0.28 | 0.27
